Test results published in US20220025050A1 (OSE IMMUNOTHERAPEUTICS, published 2022).
No constants are given. Whether binding was seen depends on the method and setting. Some binding calls cover weakened binding; strength is not graded here.

Protein sequences, listed by entry. Tags and fused reporters are not part of them. Lines headed by an entry give the natural chain unless they say otherwise; changes in a name come on top. Residues count along the entry.
UniProt Q15116, residues 25-167: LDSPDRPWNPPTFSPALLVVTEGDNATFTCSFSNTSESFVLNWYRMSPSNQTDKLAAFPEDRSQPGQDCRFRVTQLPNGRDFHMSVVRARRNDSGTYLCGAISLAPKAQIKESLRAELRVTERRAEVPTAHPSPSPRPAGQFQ
UniProt P78324: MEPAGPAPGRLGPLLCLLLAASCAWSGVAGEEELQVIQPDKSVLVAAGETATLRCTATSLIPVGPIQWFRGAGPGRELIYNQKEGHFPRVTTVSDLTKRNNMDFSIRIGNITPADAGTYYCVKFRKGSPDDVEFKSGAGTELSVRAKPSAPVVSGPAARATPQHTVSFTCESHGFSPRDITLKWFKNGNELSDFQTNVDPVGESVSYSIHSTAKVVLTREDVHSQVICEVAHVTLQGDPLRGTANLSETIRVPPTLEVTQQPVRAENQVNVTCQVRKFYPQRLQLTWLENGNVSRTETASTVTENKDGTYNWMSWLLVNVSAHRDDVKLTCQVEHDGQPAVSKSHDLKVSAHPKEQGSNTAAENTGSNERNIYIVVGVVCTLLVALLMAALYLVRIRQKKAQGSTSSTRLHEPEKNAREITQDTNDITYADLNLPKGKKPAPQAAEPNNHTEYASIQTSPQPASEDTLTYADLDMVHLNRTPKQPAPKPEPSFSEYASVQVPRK

Biological target: recombinant hPD1 (Sino Biologicals, reference 10377-H08H) (human) (UniProt Q15116)
Assay: PD-1 binding ELISA (FIG. 5, Table 2)

Substance: Chimeric anti-PD1 fused on its heavy chain to Type I-protein C (SIRPa) (from UniProt P78324 31-373)
- binding: binds
